From PubChem BioAssay AID2685 (National Center for Advancing Translational Sciences (NCATS), 2010) come the findings set out here.

Some of the results follow. These are further read-outs of the screen, such as a control signal, another cell line or another target. No call is given for them. The list favours compounds with an active or inconclusive main result. Words in brackets tell the shape of the fitted curve; partial curves, single points and poor fits give uncertain potencies.

The nature of this assay: qHTS Assay for Lipid Storage Modulators in Drosophila S3 Cells.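 For cell number change: cells counted by Cell Tracker Red CMTPX staining in the red channel.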 The note with it: BODIPY lipid droplet fluorescence, 18-24 h; for cell number change: measured here: cell count max response, cells fed with added oleic acid. The essentials: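 Laser-scanning cytometry quantifies lipid droplet accumulation (500–530 nm total intensity; droplet/cell object ratio) in oleic acid-fed (400 uM added) Drosophila S3 cells treated with a concentration series. 20 uM Triacsin C defined 100% inhibition.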

[1] abbreviates: measured here: cell number channel AC50, cells fed with added oleic acid.
The mark [2] stands for this setting: measured here: lipid fluorescence (Fed channel) AC50, cells fed with added oleic acid.

As to `CCCC[C@H]1COCCS(=O)(=O)N1Cc1cccc([N+](=O)[O-])c1`, the cell number change worked out at 18.8%. Further, the AC50 under setting [1] is 7.31 µM [rising, partial curve, poor fit]. Besides, the AC50 under setting [2] is 29.1 µM [rising, single point].
With `O=C(NCC1CCCO1)c1ccc(COCC(F)(F)C(F)F)cc1` (stereo not given), the cell number change stood at 29.1%.
Consider `O=C(CCN1C(=O)COc2ccccc21)N1CCCCC1`, for which the cell number change turned out to be 41.8%. In addition, the AC50 under setting [1] is 7.31 µM [rising, partial curve, poor fit]. Further, the AC50 under setting [2] is 3.26 µM [rising, single point].
On to `N#CC1=C(N)Oc2c(O)cc3ccccc3c2C1c1ccsc1` (stereo not given), for which the cell number change was -40.4%. For the same molecule, the AC50 under setting [1] was 29.1 µM [falling, single point]. The AC50 under setting [2] is 29.1 µM [falling, single point].
Turning to `CC(C)c1ccc(/C=N/NC(=O)c2cccc(S(=O)(=O)N3CCOCC3)c2)cc1`, the cell number change was 4.87%. For the same molecule, under setting [1], the AC50 was 0.00461 µM [rising, full curve, poor fit].
With `COCCNC(=S)N1CCc2cc(OC)c(OC)cc2C1COc1cc(C)cc(C)c1` (stereo not given), the cell number change was 0.0569%. Besides, under setting [2], the concentration at half-maximal activity (AC50) is 0.206 µM [falling, full curve, poor fit].
On to `CCCCn1c(-c2nonc2N)nc2ccccc21`, for which the cell number change was -30.9%. Besides, under setting [1], the AC50 is 16.4 µM [falling, single point].
As for `Cc1cccc(OCCNS(=O)(=O)c2ccc(Cl)cc2)c1`, the cell number change was -48.3%. In addition, the AC50 under setting [1] is 20.6 µM [falling, single point]. Further, the AC50 under setting [2] is 29.1 µM [falling, single point].
Turning to `Cc1ccc2c(c1)[nH]c1c(N3CCN(Cc4ccccc4)CC3)ncnc12`, the cell number change is -9.35%. Besides, under setting [2], the AC50 was 6.51 µM [falling, single point].
For the molecule `CCOC(=O)NC(=O)c1cn(Nc2ccccc2C(F)(F)F)c(=O)[nH]c1=O`, the cell number change amounted to 6.88%. The AC50 under setting [2] is 23.1 µM [falling, single point].
Consider `CC(C)c1nc(SCC(=O)N2CCCCCC2)c2c(=O)n(C)c(=O)n(C)c2n1`, for which the cell number change is -43.5%. For the same molecule, the AC50 under setting [1] is 4.61 µM [falling, partial curve]. Also, the AC50 under setting [2] was 1.46 µM [falling, full curve].
Regarding `COC(=O)CSc1nnc(CNS(=O)(=O)c2ccc(Br)cc2)n1C`, the cell number change was found to be 189%.
Take `COc1cc(/C=N/NC(=O)c2ccc(O)cc2)ccc1Oc1ccc([N+](=O)[O-])cn1`: the cell number change was -16.2%.
On to `CN1CCc2c(sc(/N=C/c3cccs3)c2C(N)=O)C1`, for which the cell number change was -0.694%. In addition, the AC50 under setting [2] was 1.03 µM [rising, full curve, poor fit].
`COCCNc1nnc(SCC(=O)N(C)c2c(N)n(Cc3ccccc3)c(=O)[nH]c2=O)s1`: the cell number change is -9.35%. Under setting [1], the AC50 was 0.103 µM [falling, full curve, poor fit]. In addition, under setting [2], the AC50 is 1.64 µM [falling, partial curve, poor fit].
Turning to `O=C(c1cc2ccccc2o1)N(Cc1ccco1)Cc1cccs1`, the cell number change was found to be 37.3%. For the same molecule, the AC50 under setting [1] was 1.3 µM [rising, full curve, poor fit].
Take `Cc1ccccc1CSCCNC(=O)CN(c1ccc2c(c1)OCO2)S(C)(=O)=O`: the cell number change came to 3.75%.
On the same count and under the same terms, as for `COc1ccccc1/C=C/C(=O)NC(=S)N(C)C1CCCCC1`, the figure is 3.74%.
For `COC(=O)c1ccc(CN2C(=O)C3CCCCC3C2=O)o1` (stereo not given), the cell number change is -11%. In addition, under setting [2], the AC50 is 29.1 µM [falling, single point].
`COc1cc2c(cc1OC)CN(C1CCC(C)CC1)CC2` (stereo not given): the cell number change is -20.7%. Besides, the AC50 under setting [2] was 29.1 µM [rising, single point].
Turning to `CC(C)CN(C(=O)CN1CCN(c2ccc([N+](=O)[O-])cc2)CC1)c1c(N)n(CC(C)C)c(=O)[nH]c1=O`, the cell number change worked out at 30.2%. Besides, under setting [1], the AC50 was 18.4 µM [rising, single point]. Further, the AC50 under setting [2] is 18.4 µM [rising, single point].
For the molecule `C/C(=N\N=C\c1ccc(N(C)C)cc1)c1cccc([N+](=O)[O-])c1`, the cell number change turned out to be 27.2%. Besides, the AC50 under setting [2] is 0.731 µM [rising, full curve, poor fit].
Consider `Cc1nc2ccc(NC(=O)c3cccc(C(F)(F)F)c3)cc2o1`, for which, under setting [1], the AC50 is 5.17 µM [falling, single point].
As to `CC(C)N=c1c([N+](=O)[O-])nn(C)n1O`, the cell number change is -42.3%. Further, under setting [1], the AC50 is 29.1 µM [falling, single point].
Consider `CCCCOc1ccc(C(=O)NCCC(=O)NCCCC(=O)OCC)cc1`, for which the cell number change is -33.1%. For the same molecule, under setting [2], the AC50 was 29.1 µM [falling, single point].
As for `CCOc1ncccc1C(=O)N(CC)CC(=O)NCc1ccc(F)cc1`, under setting [2], the AC50 is 6.51 µM [falling, single point].
Turning to `CN(C)c1ccc(/C=C/c2ccc3c4ccccc4ccc3[n+]2-c2ccccc2)cc1`, the cell number change was -28.2%.
Consider `COc1ccc(Oc2nc3c(c(=O)n(C)c(=O)n3C)n2Cc2cccc(OC)c2)cc1`, for which the cell number change was found to be 21.4%. Under setting [2], the AC50 was 0.146 µM [rising, full curve, poor fit].
Take `CCCn1c(SCC(=O)NC2CCCCC2)nnc1-c1ccccn1`: the cell number change was 15.7%.
As for `Cc1ccc(Cn2nnc3c(=O)n(CC(=O)c4ccccc4)cnc32)cc1`, the cell number change is -18%. For the same molecule, the AC50 under setting [2] is 5.8 µM [falling, full curve].
On to `Cc1ccc2c(COC(=O)c3c(C)noc3C)cc(=O)oc2c1`, for which the cell number change is -18.5%. Moreover, the AC50 under setting [1] is 0.146 µM [rising, full curve, poor fit]. Also, under setting [2], the AC50 was 20.6 µM [rising, single point].
Turning to `S=C(NCc1ccccc1)NC1CCSc2ccccc21` (stereo not given), under setting [2], the AC50 was 6.51 µM [falling, single point].
As for `Cc1nc2c(S(=O)(=O)c3ccccc3)cnn2c(C)c1C`, the cell number change is -39%. For the same molecule, the AC50 under setting [1] is 16.4 µM [falling, single point]. Further, under setting [2], the AC50 was 29.1 µM [falling, single point].
Consider `CC(C(=O)O)c1n[nH]c(=O)c2ccccc12` (stereo not given), for which the cell number change was determined as 12.2%. For the same molecule, the AC50 under setting [2] is 29.1 µM [rising, single point].
Regarding `CCn1c(=O)n(CC)c2cc(S(=O)(=O)N3CCCCC3)c(C)cc21`, the cell number change was determined as 19.4%.
`CC(=O)CSc1cc(C)nc2c(-c3ccccc3)c(C)nn12`: the cell number change worked out at 11%. The AC50 under setting [2] was 1.16 µM [rising, full curve, poor fit].
Regarding `O=[N+]([O-])c1ccccc1OCCCn1cnc2ccccc21`, the cell number change is -4.92%. For the same molecule, under setting [2], the AC50 is 32.6 µM [falling, single point].
As to `CCN(CC)S(=O)(=O)c1cc(C(=O)Oc2ccccc2OC)ccc1OC`, the cell number change turned out to be 7.74%.
As to `CN(c1cccc(NC(=O)CN(c2ccc(C34CC5CC(CC(C5)C3)C4)cc2)S(C)(=O)=O)c1)S(C)(=O)=O`, the cell number change is -37.5%. Further, the AC50 under setting [1] was 0.82 µM [falling, full curve, poor fit].
For `CCc1nnc(NC(=O)C2CCN(c3ncnc4sc(C)c(C)c34)CC2)s1`, the cell number change turned out to be 7%.
As for `COc1c(Cl)cc(Cl)cc1C(=O)n1nc(C)cc1C`, the cell number change was -35.5%. Further, the AC50 under setting [1] was 0.206 µM [falling, full curve, poor fit]. Moreover, under setting [2], the AC50 is 18.4 µM [falling, single point].
Regarding `COCCOC1CCN(C(=O)C2CCC(=O)N(Cc3cccc(F)c3)C2)CC1` (stereo not given), the cell number change was 5.34%. Besides, the AC50 under setting [1] was 6.51 µM [falling, single point].
Regarding `CC1CCN(c2c(NCc3ccc(C(=O)N4CCc5ccccc54)cc3)c(=O)c2=O)CC1`, the cell number change is 10.9%.
As to `CCc1nnc(NC(=O)CN2CCN(Cc3cccc(Cl)c3)CC2)s1`, the cell number change is -22.3%. Further, the AC50 under setting [2] is 29.1 µM [rising, partial curve, poor fit].
For the molecule `COC(=O)CN(c1nc(C)cc(OC)n1)S(=O)(=O)c1ccc(C)cc1`, the cell number change is -32%. Besides, the AC50 under setting [1] was 10.3 µM [falling, partial curve, poor fit].
Regarding `Cc1ccc(-n2c(O)c(/C=N/n3cnnc3)c3ccccc3c2=O)cc1`, the cell number change was -40.2%. In addition, under setting [1], the AC50 was 13 µM [falling, partial curve, poor fit]. Also, under setting [2], the AC50 is 16.4 µM [falling, partial curve].
Regarding `CCC1(C)N(O)C(C)(C)C(c2ccc(OC)cc2)=[N+]1[O-]` (stereo not given), the cell number change worked out at 4.87%.
As to `Cc1c(Br)c([N+](=O)[O-])nn1C(C)C(=O)Nc1c(C)n(C)n(-c2ccccc2)c1=O` (stereo not given), the cell number change was -16.9%. Further, under setting [1], the AC50 was 0.231 µM [falling, full curve, poor fit].
For the molecule `CCOC(=O)c1c(NC(=O)CSc2nnc(-c3ccccc3)o2)sc(C(C)=O)c1C`, the cell number change was found to be 21.2%.
The same measure, in the same setting: as for `Cc1cc(SCC(=O)N/N=C/c2ccco2)nc2ccccc12`, the figure is -14.9%; as for `Cc1cc2ncn(C3CC(=O)N(C)C3=O)c2cc1C` (stereo not given), -17.6%.
With `CN(C)S(=O)(=O)c1cccc(C(=O)OCC(=O)N2CCCC2=O)c1`, the cell number change was -12%. In addition, under setting [2], the concentration at half-maximal activity (AC50) was 0.651 µM [falling, full curve].
As to `CCN(CC)C(=O)c1cc2c(=O)n3cccc(C)c3nc2s1`, the AC50 under setting [1] is 0.58 µM [rising, single point].
Turning to `COc1ccc(C2CC(C)=C(C#N)S(=O)(=O)C2C#N)cc1` (stereo not given), the cell number change is 31.8%. In addition, under setting [1], the AC50 was 20.6 µM [rising, partial curve, poor fit]. For the same molecule, under setting [2], the AC50 is 5.8 µM [rising, partial curve, poor fit].
For the molecule `C=CCN=C1SC(CC)C(=O)N1S(=O)(=O)c1ccc(C)cc1` (stereo not given), the cell number change amounted to 35.7%. For the same molecule, the AC50 under setting [1] was 20.6 µM [rising, single point].
On to `C[C@@H](C(=O)NCCc1c[nH]c2ccccc12)[C@@H]1C[C@@]1(C)[C@@H](NC(=O)OCc1ccccc1)c1ccccc1`, for which the cell number change is 18%. Moreover, the AC50 under setting [2] was 0.731 µM [rising, full curve, poor fit].
`COC(=O)Nc1ccc(S(=O)(=O)N2CCCC(C(=O)Nc3cccc4c3OCCO4)C2)cc1` (stereo not given): the cell number change was -13.4%. Further, the AC50 under setting [2] was 0.146 µM [falling, full curve, poor fit].
As for `COC(=O)[C@@H]1Cc2c([nH]c3ccccc23)C2CCC(=O)N21` (stereo not given in full), under setting [1], the AC50 is 1.84 µM [rising, partial curve].
As to `O=C1c2ccccc2C(=O)N1CCOc1cccc(Br)c1`, the cell number change is -15.3%. Moreover, under setting [2], the AC50 was 29.1 µM [falling, single point].
On to `Cc1ccccc1NC(=O)CC1C(=O)NCCN1C(=O)c1cccc(Cl)c1` (stereo not given), for which the cell number change was -15.3%. The AC50 under setting [2] was 6.31 µM [falling, full curve, poor fit].
As to `CCOC(=O)C1=C(CC)Nc2ccccc2N/C1=N\S(=O)(=O)c1ccc(C(=O)OCC)cc1`, the cell number change came out at 36%. Moreover, the AC50 under setting [1] was 20.6 µM [rising, single point]. Besides, under setting [2], the AC50 is 0.092 µM [falling, full curve, poor fit].
